Test results from patent publication US11773096B2, “Small-molecule PI5P4K alpha/beta inhibitors and methods of treatment using same” (YALE UNIVERSITY, priority 2018, dated 2023).
The structures given here were assigned with low confidence; some may be wrong.

The chains behind the UniProt entries cited, without tags or fusion partners.
UniProt P78356, whole entry: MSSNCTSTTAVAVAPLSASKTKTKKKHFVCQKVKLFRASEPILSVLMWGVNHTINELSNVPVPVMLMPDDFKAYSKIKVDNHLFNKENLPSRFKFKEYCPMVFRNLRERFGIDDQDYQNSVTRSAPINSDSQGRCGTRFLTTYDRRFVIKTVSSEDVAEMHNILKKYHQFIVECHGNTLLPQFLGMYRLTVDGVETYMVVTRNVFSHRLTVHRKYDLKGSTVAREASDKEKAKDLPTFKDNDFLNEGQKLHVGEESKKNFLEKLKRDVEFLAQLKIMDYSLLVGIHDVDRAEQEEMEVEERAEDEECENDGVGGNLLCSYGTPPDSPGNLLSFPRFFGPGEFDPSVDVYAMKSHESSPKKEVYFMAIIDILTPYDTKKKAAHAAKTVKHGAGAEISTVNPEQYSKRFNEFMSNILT
UniProt P48426, whole entry: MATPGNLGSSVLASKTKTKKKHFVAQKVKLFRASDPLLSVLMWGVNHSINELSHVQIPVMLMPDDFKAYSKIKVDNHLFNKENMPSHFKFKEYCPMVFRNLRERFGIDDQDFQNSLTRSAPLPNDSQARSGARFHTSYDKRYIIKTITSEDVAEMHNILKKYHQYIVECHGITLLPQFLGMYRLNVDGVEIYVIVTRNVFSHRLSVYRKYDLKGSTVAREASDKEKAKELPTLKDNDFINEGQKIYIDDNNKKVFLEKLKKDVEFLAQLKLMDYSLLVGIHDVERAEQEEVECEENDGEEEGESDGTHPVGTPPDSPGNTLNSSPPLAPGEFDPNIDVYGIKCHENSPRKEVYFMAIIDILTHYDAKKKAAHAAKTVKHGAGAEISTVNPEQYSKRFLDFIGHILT

Columns and labels:
PI5P4Kβ = PI5P4Kβ (Homo sapiens, UniProt P78356); assay: PI5P4Kβ kinase assay, 32P-labelled PI(4,5)P2 product resolved by TLC; conditions: read-out: Ki(PI5P4Kβ)
PI5P4Kα = PI5P4Kα (Homo sapiens, UniProt P48426); assay: PI5P4Kα kinase assay, 32P-labelled PI(4,5)P2 product resolved by TLC; conditions: read-out: Ki(PI5P4Kα)

Ki (PI5P4Kβ): 500 to 1000 nM
Ki (PI5P4Kα): 160 to 320 nM
Compound: CN1C(=O)[C@@H](CN2CCCC2)N(C2CCCC2)c2nc(Nc3cc(Cl)c(O)c(Cl)c3)ncc21
